From paper PMC5370020
Substitutions are numbered along the chain they refer to. These are yes or no findings as the source states them, for the method shown. Binding seen in cells or lysates may run through a third protein. Some entries that bind do so weakly or less than the wild type. Where a sequence is shown, tags or fusion partners need not be part of it.

Amino acid sequences for entries named in this document (tags omitted).
UniProt O75376: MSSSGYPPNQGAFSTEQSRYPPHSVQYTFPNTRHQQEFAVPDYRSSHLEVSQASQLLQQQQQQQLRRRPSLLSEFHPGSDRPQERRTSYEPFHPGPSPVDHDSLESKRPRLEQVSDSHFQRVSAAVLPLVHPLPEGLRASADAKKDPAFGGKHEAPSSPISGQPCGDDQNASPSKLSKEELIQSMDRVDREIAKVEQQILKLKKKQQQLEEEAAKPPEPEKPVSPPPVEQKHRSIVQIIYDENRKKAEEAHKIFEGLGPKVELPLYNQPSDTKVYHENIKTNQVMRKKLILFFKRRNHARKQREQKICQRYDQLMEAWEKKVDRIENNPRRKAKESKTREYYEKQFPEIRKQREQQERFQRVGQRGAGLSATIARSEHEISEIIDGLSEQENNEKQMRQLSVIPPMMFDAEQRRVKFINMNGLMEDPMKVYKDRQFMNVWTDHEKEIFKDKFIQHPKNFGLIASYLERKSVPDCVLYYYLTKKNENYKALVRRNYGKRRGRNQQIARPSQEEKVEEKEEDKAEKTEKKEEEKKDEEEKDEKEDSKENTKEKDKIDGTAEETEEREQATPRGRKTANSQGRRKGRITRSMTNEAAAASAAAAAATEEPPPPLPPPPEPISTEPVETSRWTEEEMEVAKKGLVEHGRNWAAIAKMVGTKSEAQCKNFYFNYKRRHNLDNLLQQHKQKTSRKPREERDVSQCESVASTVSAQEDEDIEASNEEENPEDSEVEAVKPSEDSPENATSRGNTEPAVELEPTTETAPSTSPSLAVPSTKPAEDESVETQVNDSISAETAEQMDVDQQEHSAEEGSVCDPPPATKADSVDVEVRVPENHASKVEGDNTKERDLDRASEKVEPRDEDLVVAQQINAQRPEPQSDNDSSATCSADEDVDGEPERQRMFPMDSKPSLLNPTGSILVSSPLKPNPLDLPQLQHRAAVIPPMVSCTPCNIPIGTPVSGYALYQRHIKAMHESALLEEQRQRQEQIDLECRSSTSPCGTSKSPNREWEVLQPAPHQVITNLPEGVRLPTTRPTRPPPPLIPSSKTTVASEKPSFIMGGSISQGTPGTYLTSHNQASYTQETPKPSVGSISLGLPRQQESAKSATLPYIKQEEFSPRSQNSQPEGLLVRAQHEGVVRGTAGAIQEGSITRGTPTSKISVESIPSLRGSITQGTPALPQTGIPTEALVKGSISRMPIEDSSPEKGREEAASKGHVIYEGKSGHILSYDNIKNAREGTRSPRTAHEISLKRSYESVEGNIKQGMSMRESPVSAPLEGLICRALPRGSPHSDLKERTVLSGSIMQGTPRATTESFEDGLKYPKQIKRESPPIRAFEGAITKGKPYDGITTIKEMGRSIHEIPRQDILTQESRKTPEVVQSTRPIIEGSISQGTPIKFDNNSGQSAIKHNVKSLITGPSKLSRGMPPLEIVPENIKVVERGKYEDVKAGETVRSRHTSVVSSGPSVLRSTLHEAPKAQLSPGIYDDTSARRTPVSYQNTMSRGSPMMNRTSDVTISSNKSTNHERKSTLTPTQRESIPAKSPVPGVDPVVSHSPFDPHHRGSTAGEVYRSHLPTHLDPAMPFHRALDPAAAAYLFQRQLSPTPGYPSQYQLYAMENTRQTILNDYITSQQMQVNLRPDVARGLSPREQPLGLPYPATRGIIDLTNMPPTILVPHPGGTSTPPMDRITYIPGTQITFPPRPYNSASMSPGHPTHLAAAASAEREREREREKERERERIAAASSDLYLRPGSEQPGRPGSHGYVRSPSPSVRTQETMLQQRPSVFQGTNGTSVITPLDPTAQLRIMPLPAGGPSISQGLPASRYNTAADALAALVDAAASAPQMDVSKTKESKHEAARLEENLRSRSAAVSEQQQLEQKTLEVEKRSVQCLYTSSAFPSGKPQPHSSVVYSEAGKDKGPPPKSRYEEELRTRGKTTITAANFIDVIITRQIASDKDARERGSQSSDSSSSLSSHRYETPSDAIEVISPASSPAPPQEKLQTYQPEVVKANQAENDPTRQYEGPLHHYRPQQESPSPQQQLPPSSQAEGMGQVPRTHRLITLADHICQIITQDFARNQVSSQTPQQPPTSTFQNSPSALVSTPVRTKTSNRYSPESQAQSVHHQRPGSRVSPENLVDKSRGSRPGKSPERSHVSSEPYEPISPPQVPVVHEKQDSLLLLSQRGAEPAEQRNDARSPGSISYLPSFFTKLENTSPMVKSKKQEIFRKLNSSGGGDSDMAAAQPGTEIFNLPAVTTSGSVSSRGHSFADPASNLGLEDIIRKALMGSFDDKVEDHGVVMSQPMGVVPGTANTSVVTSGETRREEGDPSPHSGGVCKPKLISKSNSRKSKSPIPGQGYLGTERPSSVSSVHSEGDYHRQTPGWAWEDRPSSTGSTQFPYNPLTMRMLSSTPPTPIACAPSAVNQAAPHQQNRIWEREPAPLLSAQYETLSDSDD

Legend:
Experiment in all cases: co-IP; whole cell lysates of cells transfected with GFP-TBL1XR1 (293T by the abstract); GFP antibody and protein G magnetic beads, 2 h at 4°C; blotted for NCoR and HDAC3
[1] = biological target: T1, GFP-tagged TBL1XR1 G187R (human) (UniProt Q9BZK7)
T1 sequence: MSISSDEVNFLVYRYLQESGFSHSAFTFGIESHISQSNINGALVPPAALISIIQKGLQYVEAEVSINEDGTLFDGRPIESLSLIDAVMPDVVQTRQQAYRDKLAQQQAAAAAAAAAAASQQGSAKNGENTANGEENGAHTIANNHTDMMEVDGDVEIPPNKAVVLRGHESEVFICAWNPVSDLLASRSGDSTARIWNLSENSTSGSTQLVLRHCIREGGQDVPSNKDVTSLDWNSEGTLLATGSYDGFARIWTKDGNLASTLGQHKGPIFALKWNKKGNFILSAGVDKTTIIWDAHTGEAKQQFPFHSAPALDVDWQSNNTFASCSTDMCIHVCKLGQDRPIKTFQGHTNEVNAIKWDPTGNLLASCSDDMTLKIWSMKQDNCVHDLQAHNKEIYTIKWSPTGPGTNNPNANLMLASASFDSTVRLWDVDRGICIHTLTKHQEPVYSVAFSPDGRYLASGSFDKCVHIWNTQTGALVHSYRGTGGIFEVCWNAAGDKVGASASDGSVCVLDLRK

[2] = biological target: T2, GFP-tagged TBL1XR1 H348Q (human) (UniProt Q9BZK7)
T2 sequence: T1 sequence with R187G, H348Q

[3] = biological target: T3, GFP-tagged TBL1XR1 L282P (human) (UniProt Q9BZK7)
T3 sequence: T1 sequence with R187G, L282P

[4] = biological target: T4, GFP-tagged TBL1XR1 S459N (human) (UniProt Q9BZK7)
T4 sequence: T1 sequence with R187G, S459N

[5] = biological target: T5, GFP-tagged wild-type TBL1XR1 (human) (UniProt Q9BZK7)
T5 sequence: T1 sequence with R187G

Measured: binding

nuclear receptor corepressor (NCoR) (from UniProt O75376 1-2440)
binds: all assays above
